Data published in publication PMC4682977.
Results are given in words; binding and its absence hold for the method and conditions named. Binding seen in cells or lysates may run through a third protein. Binding can be weak; no strength is given. Sequences can lack the tags named with a protein.

Target: T1, C-terminally Flag-tagged TβRI (TGF-β type I receptor) (UniProt P36897)
T1 sequence: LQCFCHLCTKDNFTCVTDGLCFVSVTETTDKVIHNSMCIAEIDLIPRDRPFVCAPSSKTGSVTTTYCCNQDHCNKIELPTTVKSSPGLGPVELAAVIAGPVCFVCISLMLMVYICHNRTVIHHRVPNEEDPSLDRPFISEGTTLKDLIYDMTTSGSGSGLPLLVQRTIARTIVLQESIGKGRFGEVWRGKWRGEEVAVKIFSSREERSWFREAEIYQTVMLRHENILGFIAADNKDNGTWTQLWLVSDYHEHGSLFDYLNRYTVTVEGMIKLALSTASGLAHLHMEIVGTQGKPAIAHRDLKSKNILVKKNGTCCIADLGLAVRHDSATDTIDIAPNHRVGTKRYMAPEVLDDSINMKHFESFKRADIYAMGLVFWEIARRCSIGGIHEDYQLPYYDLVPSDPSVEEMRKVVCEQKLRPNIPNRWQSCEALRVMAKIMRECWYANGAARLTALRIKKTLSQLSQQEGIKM
Assay: co-IP; 293T cells coexpressing TβRII and Flag-tagged TβRI with the partner, with or without increasing amounts of p52ShcA-HA or Smad3-myc plasmid, TGF-β-treated; anti-Flag immunoprecipitation of TβRI, immunoblotting of associated proteins; lysis buffer 25 mM Tris-HCl pH 7.5, 150 mM NaCl, 0.7% Triton X-100, 10% glycerol

C-terminal Myc-Smad3D407E
binding: binds
